Our source for the binding values is patent publication US20030078191A1.

Chains of the proteins cited; added tags and fusions are not shown. Lines headed by an entry give the natural chain unless they say otherwise; changes in a name come on top.
UniProt P04386: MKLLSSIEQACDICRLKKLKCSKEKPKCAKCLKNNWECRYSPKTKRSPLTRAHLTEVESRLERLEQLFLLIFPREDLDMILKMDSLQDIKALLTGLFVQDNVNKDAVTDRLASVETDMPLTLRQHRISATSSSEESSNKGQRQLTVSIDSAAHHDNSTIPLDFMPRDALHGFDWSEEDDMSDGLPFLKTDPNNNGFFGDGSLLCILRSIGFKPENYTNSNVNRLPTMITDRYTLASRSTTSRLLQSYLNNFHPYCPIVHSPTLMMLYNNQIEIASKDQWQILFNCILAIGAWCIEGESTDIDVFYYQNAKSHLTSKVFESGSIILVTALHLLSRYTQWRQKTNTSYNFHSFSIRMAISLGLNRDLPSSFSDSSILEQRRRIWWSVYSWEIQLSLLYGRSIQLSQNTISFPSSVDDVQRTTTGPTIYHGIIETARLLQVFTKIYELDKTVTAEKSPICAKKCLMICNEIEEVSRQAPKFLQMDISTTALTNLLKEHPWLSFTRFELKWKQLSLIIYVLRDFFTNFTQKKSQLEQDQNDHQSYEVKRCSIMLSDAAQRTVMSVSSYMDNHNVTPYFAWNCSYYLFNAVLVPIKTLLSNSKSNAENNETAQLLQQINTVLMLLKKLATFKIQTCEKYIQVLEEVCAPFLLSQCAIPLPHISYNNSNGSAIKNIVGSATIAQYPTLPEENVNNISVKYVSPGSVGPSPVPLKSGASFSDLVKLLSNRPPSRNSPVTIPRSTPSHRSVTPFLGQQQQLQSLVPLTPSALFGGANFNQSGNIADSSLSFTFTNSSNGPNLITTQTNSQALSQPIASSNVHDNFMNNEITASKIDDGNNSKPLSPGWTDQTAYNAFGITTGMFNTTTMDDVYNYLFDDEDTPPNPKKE

Results are given in words; binding and its absence hold for the method and conditions named. Some entries that bind do so weakly or less than the wild type.

The target in test [1] is Gal4ad-ZipA fusion (pGAD424-ZipA(23-328), SHp104) (Escherichia coli) (UniProt P77173). The test can be described thus: yeast two-hybrid, Gal4 system.
Test [2] has the same target. Description: yeast two-hybrid, Gal4 system, growth on selective plate.

Regarding “Gal4bd-OrfE fusion (pAS2-1 fusion of kil) (from UniProt P04386 1-147; P38393 1-73)”, the binding entry in test [1] and in test [2] was “binds” each time.
